In publication PMC4876461:

Biological target: T1, Flag-SUMO5 (human) (UniProt G2XKQ0)
T1 sequence: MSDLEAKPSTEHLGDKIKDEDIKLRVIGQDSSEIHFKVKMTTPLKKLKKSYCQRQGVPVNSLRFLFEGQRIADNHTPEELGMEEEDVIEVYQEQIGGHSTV
Test: affinity purification with mass spectrometry; lysate of 293 cells expressing Flag-SUMO5 (PBS, 0.1% NP-40) on an anti-Flag M2-agarose column, eluted with Flag peptide; bands specific to the SUMO5 complex identified by mass spectrometry

binding: binds
B1: SAE2 (enzyme, UniProt Q9UBT2 1-640)
chain: MALSRGLPRELAEAVAGGRVLVVGAGGIGCELLKNLVLTGFSHIDLIDLDTIDVSNLNRQFLFQKKHVGRSKAQVAKESVLQFYPKANIVAYHDSIMNPDYNVEFFRQFILVMNALDNRAARNHVNRMCLAADVPLIESGTAGYLGQVTTIKKGVTECYECHPKPTQRTFPGCTIRNTPSEPIHCIVWAKYLFNQLFGEEDADQEVSPDRADPEAAWEPTEAEARARASNEDGDIKRISTKEWAKSTGYDPVKLFTKLFKDDIRYLLTMDKLWRKRKPPVPLDWAEVQSQGEETNASDQQNEPQLGLKDQQVLDVKSYARLFSKSIETLRVHLAEKGDGAELIWDKDDPSAMDFVTSAANLRMHIFSMNMKSRFDIKSMAGNIIPAIATTNAVIAGLIVLEGLKILSGKIDQCRTIFLNKQPNPRKKLLVPCALDPPNPNCYVCASKPEVTVRLNVHKVTVLTLQDKIVKEKFAMVAPDVQIEDGKGTILISSEEGETEANNHKKLSEFGIRNGSRLQADDFLQDYTLLINILHSEDLGKDVEFEVVGDAPEKVGPKQAEDAAKSITNGSDDGAQPSTSTAQEQDDVLIVDSDEEDSSNNADVSEEERSRKRKLDEKENLSAKRSRIEQKEELDDVIALD

Results are given in words; binding and its absence hold for the method and conditions named. Binding seen in cells or lysates may run through a third protein. A yes stands for co-enrichment or nearness to the bait. Other partners may have been found. Where a sequence is shown, tags or fusion partners need not be part of it.
